Measurements from PMC6039025.
Results are given in words; binding and its absence hold for the method and conditions named. Some binding calls cover weakened binding; strength is not graded here. Tags and fused reporters may be left off the sequences shown.

T1: Smc4 (wild-type), 3xStrepTagII-tagged (S. cerevisiae) (UniProt Q12267)
T1 sequence: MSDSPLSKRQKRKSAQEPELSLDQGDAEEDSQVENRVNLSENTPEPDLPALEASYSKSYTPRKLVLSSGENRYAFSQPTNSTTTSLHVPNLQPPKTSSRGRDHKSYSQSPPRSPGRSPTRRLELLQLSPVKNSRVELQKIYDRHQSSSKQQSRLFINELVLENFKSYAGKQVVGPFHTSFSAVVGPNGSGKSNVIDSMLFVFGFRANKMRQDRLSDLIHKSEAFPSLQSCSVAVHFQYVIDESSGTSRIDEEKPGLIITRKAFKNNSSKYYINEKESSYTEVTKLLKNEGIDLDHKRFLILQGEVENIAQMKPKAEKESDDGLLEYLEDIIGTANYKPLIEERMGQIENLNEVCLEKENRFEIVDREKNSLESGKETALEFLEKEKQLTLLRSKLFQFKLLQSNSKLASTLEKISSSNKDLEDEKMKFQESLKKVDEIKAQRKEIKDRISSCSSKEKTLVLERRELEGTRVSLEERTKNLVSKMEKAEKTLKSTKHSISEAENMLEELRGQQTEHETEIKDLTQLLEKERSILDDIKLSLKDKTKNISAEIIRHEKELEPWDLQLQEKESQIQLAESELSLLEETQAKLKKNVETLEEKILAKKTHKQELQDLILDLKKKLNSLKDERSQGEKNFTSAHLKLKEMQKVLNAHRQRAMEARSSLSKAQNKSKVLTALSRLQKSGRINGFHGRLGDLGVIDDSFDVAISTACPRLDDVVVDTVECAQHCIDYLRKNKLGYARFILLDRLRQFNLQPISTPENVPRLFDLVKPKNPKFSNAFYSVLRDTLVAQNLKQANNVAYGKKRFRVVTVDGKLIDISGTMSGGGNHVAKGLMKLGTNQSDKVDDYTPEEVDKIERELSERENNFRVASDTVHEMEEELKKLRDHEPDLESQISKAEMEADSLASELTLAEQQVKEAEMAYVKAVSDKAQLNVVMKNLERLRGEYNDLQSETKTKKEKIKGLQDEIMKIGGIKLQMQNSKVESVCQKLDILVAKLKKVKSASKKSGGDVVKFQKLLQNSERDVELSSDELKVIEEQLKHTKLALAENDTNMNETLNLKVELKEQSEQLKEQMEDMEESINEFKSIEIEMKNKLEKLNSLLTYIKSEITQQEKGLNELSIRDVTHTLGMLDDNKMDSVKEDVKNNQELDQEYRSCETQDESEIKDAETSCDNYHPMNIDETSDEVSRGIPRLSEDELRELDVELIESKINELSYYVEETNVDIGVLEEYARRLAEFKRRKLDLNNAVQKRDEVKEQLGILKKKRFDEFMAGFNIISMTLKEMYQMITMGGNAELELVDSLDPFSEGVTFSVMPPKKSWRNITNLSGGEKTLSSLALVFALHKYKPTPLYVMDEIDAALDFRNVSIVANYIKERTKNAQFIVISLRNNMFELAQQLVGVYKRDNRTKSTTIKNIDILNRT


Target: T1, Smc4 (wild-type), 3xStrepTagII-tagged (S. cerevisiae)
Assay: tandem affinity co-purification (Ni-NTA, Strep-Trap) + SEC; five condensin subunits co-overexpressed in yeast; extract in 500 mM NaCl, 10 mM Tris-HCl pH 8.0, 10% glycerol; Ni-NTA (His tags on Brn1 and Ycg1), then Strep-Trap HP (3xStrepTagII on Smc4), then Superose 6 10/300 in 200 mM NaCl, 50 mM Tris-HCl pH 8.0; subunits seen by SDS-PAGE and Coomassie staining

Row | binding | Binder
1 | binds | Ycs4 (protein, UniProt Q06156 1-1176) MSGFSLSEYLTKFQTTDRESYPRLQDPSRELNVIIDQLAVSPEQIDASPDSLEALIDLCHDFPHLTPKLQTQLSYLISSSLSNLSKDIKANLSSNVNFTEIGGLIPQWKRHLEEYGYLIQVLLTFLQDELHKVSSQSTNLNRSAKNSKNDSANVELFKRDCNQMENLLESITKLLEINLSKIFQTTPEKDLFIGLFTRPLFVLLEIEPVTKVSSLKMFIQRILAMCVKNHGQSSSIQSSLMTNLTYFLHLSVFNAELLKLLNDEYNYPQLTEDILKEISTRVFNAKDTTGPKAISNFLIKLSELSPGIMLRQMNLVITLLNNSSITLRCSVVEACGNIVAELAQDPQTMEHYKQQIAVLIELLEERFQDSNPYVRTKAIQGCSKICDLSSKFNKSKAKFTSLAVRSLQDRSSLVRRNSVKLLSKLLLKHPFKAIHGSQLRLSEWEEYLKGSESQLNSTLKKVESQETLNDTIERSLIEEEVEQDEGQCRTELEGSFNKSAELSRIENEVENINATNTSVLMKLKLMIVYYKDAISFIKEIHKSIELISNLLFSKNRNEVLESMDFLVLADAFDIELSEFGIKKMLHLVWMKGTNDEGTSISVHLIECYKQLFLTAPDSCNMQEKAAHIAKNLINLSIGASIADLASLEQLLGMMYEQKLIDQHVINILWAIYNSASKASMQKEQNVNNRDSEKGFSKEQIHGSIIILGMLSLADNEIALKGLESLLNIGLGAVGLKDLTLCRYSCLALERMVPKRSTIITKAINQELEDVAVKKLYAIIINYTKDNEYYPMCEQALSALFTISSKPDILATDLIREKTMMTFGKPEEEDSILSLEQSSRVVSLSQLLFIVGQVAIKTLVYLEKCEAEFKKRKIEAETRNGKVKNQGADVTNTTQDNGGDKELEMIGGTNEDDFTDAIQFVKENELLFGEKSILGKFCPIVEEIVSNSSRFSDPMLQRTATLCLEKLMCLSSKYCEKSLPLLITVMEKSPDPTIRSNAVLGLGDMAVCFNNLVDENTDYLYRRLHDENLMVQRTCLMTVTFLILAGQVKVKGQLGEMAKCLDNPDQGISDMCRLFFTELASKDNAIYNGFIDIFSNLSSDDLLGKESFKKIIKFLLTFIDKERHQKQLNEKLVGRLRKCETQKQWDDIAFVLNNLPYKNEDVTALLEQGFKVVSAKE
2 | binds | Smc2 (protein, UniProt P38989 1-1170) MKVEELIIDGFKSYATRTVITDWDPQFNAITGLNGSGKSNILDAICFVLGIASMSTVRASSLQDLIYKRGQAGVTKASVTIVFDNTDKSNSPIGFTNSPQISVTRQVVLGGTSKYLINGHRAPQQSVLQLFQSVQLNINNPNFLIMQGKITKVLNMKPSEILSLIEEAAGTKMFEDRREKAERTMSKKETKLQENRTLLTEEIEPKLEKLRNEKRMFLEFQSTQTDLEKTERIVVSYEYYNIKHKHTSIRETLENGETRMKMLNEFVKKTSEEIDSLNEDVEEIKLQKEKELHKEGTISKLENKENGLLNEISRLKTSLSIKVENLNDTTEKSKALESEIASSSAKLIEKKSAYANTEKDYKMVQEQLSKQRDLYKRKEELVSTLTTGISSTGAADGGYNAQLAKAKTELNEVSLAIKKSSMKMELLKKELLTIEPKLKEATKDNELNVKHVKQCQETCDKLRARLVEYGFDPSRIKDLKQREDKLKSHYYQTCKNSEYLKRRVTNLEFNYTKPYPNFEASFVHGVVGQLFQIDNDNIRYATALQTCAGGRLFNVVVQDSQTATQLLERGRLRKRVTIIPLDKIYTRPISSQVLDLAKKIAPGKVELAINLIRFDESITKAMEFIFGNSLICEDPETAKKITFHPKIRARSITLQGDVYDPEGTLSGGSRNTSESLLVDIQKYNQIQKQIETIQADLNHVTEELQTQYATSQKTKTIQSDLNLSLHKLDLAKRNLDANPSSQIIARNEEILRDIGECENEIKTKQMSLKKCQEEVSTIEKDMKEYDSDKGSKLNELKKELKLLAKELEEQESESERKYDLFQNLELETEQLSSELDSNKTLLHNHLKSIESLKLENSDLEGKIRGVEDDLVTVQTELNEEKKRLMDIDDELNELETLIKKKQDEKKSSELELQKLVHDLNKYKSNTNNMEKIIEDLRQKHEFLEDFDLVRNIVKQNEGIDLDTYRERSKQLNEKFQELRKKVNPNIMNMIENVEKKEAALKTMIKTIEKDKMKIQETISKLNEYKRETLVKTWEKVTLDFGNIFADLLPNSFAKLVPCEGKDVTQGLEVKVKLGNIWKESLIELSGGQRSLIALSLIMALLQFRPAPMYILDEVDAALDLSHTQNIGHLIKTRFKGSQFIVVSLKEGMFANANRVFRTRFQDGTSVVSIM
3 | binds | Brn1-3xHA-12xHIS (protein, UniProt P38170 1-754) MTTQLRYENNDDDERVEYNLFTNRSTMMANFEEWIKMATDNKINSRNSWNFALIDYFYDLDVLKDGENNINFQKASATLDGCIKIYSSRVDSVTTETGKLLSGLAQRKTNGASNGDDSNGGNGEGLGGDSDEANIEIDPLTGMPISNDPDVNNTRRRVYNRVLETTLVEFETIKMKELDQELIIDPLFKKALVDFDEGGAKSLLLNTLNIDNTARVIFDASIKDTQNVGQGKLQRKEEELIERDSLVDDENEPSQSLISTRNDSTVNDSVISAPSMEDEILSLGMDFIKFDQIAVCEISGSIEQLRNVVEDINQAKDFIENVNNRFDNFLTEEELQAAVPDNAEDDSDGFDMGMQQELCYPDENHDNTSHDEQDDDNVNSTTGSIFEKDLMAYFDENLNRNWRGREHWKVRNFKKANLVNKESDLLEETRTTIGDTTDKNTTDDKSMDTKKKHKQKKVLEIDFFKTDDSFEDKVFASKGRTKIDMPIKNRKNDTHYLLPDDFHFSTDRITRLFIKPGQKMSLFSHRKHTRGDVSSGLFEKSTVSANHSNNDIPTIADEHFWADNYERKEQEEKEKEQSKEVGDVVGGALDNPFEDDMDGVDFNQAFEGTDDNEEASVKLDLQDDEDHKFPIRENKVTYSRVSKKVDVRRLKKNVWRSINNLIQEHDSRKNREQSSNDSETHTEDESTKELKFSDIIQGISKMYSDDTLKDISTSFCFICLLHLANEHGLQITHTENYNDLIVNYEDLATTQAAS
